Laboratory results reported in publication PMC3229523, “Identification of Lactoferricin B Intracellular Targets Using an Escherichia coli Proteome Chip” (PLoS ONE, 2011).
These are yes or no findings as the source states them, for the method shown. Some binding calls cover weakened binding; strength is not graded here.

T1: DyLight 549-labeled Lactoferricin B (UniProt P24627)
T1 sequence (peptide, DyLight 549 (NHS ester labelling, sites not stated)): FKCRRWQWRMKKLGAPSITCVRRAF

B1: Adi (protein, UniProt P28629 1-755)
chain: MKVLIVESEFLHQDTWVGNAVERLADALSQQNVTVIKSTSFDDGFAILSSNEAIDCLMFSYQMEHPDEHQNVRQLIGKLHERQQNVPVFLLGDREKALAAMDRDLLELVDEFAWILEDTADFIAGRAVAAMTRYRQQLLPPLFSALMKYSDIHEYSWAAPGHQGGVGFTKTPAGRFYHDYYGENLFRTDMGIERTSLGSLLDHTGAFGESEKYAARVFGADRSWSVVVGTSGSNRTIMQACMTDNDVVVVDRNCHKSIEQGLMLTGAKPVYMVPSRNRYGIIGPIYPQEMQPETLQKKISESPLTKDKAGQKPSYCVVTNCTYDGVCYNAKEAQDLLEKTSDRLHFDEAWYGYARFNPIYADHYAMRGEPGDHNGPTVFATHSTHKLLNALSQASYIHVREGRGAINFSRFNQAYMMHATTSPLYAICASNDVAVSMMDGNSGLSLTQEVIDEAVDFRQAMARLYKEFTADGSWFFKPWNKEVVTDPQTGKTYDFADAPTKLLTTVQDCWVMHPGESWHGFKDIPDNWSMLDPIKVSILAPGMGEDGELEETGVPAALVTAWLGRHGIVPTRTTDFQIMFLFSMGVTRGKWGTLVNTLCSFKRHYDANTPLAQVMPELVEQYPDTYANMGIHDLGDTMFAWLKENNPGARLNEAYSGLPVAEVTPREAYNAIVDNNVELVSIENLPGRIAANSVIPYPPGIPMLLSGENFGDKNSPQVSYLRSLQSWDHHFPGFEHETEGTEIIDGIYHVMCVKA
B2: YnhE (protein, UniProt P77522 1-495)
chain: MSRNTEATDDVKTWTGGPLNYKEGFFTQLATDELAKGINEEVVRAISAKRNEPEWMLEFRLNAYRAWLEMEEPHWLKAHYDKLNYQDYSYYSAPSCGNCDDTCASEPGAVQQTGANAFLSKEVEAAFEQLGVPVREGKEVAVDAIFDSVSVATTYREKLAEQGIIFCSFGEAIHDHPELVRKYLGTVVPGNDNFFAALNAAVASDGTFIYVPKGVRCPMELSTYFRINAEKTGQFERTILVADEDSYVSYIEGCSAPVRDSYQLHAAVVEVIIHKNAEVKYSTVQNWFPGDNNTGGILNFVTKRALCEGENSKMSWTQSETGSAITWKYPSCILRGDNSIGEFYSVALTSGHQQADTGTKMIHIGKNTKSTIISKGISAGHSQNSYRGLVKIMPTATNARNFTQCDSMLIGANCGAHTFPYVECRNNSAQLEHEATTSRIGEDQLFYCLQRGISEEDAISMIVNGFCKDVFSELPLEFAVEAQKLLAISLEHSVG
B3: YdaU (protein, UniProt P76065 1-285)
chain: MLFVLILSHRAASYGAIMAALPYMQLYIADYLADTMHLSAEEHGAYLLLMFNYWQTGKPIPKNRLAKIARLTNERWADVEPSLQEFFCDNGEEWVHLRIEEDLASVREKLTKKSAAGKASVQARRSRKEADVQTKQERNLTGVQTDVEVVFEHDVNTKATNKDTDKDLKTDPPLNPPRGNRGVKKFDPLDITLPNWISVSLWREWVEFRQALRKPIRTEQGANGAIRELEKFRQQGFSPEQVIRHSIANEYQGLFAPKGVRPETLLRQVNTVSLPDSAIPPGFRG
B4: NrdD (protein, UniProt P28903 1-712)
chain: MTPHVMKRDGCKVPFKSERIKEAILRAAKAAEVDDADYCATVAAVVSEQMQGRNQVDINEIQTAVENQLMSGPYKQLARAYIEYRHDRDIEREKRGRLNQEIRGLVEQTNASLLNENANKDSKVIPTQRDLLAGIVAKHYARQHLLPRDVVQAHERGDIHYHDLDYSPFFPMFNCMLIDLKGMLTQGFKMGNAEIEPPKSISTATAVTAQIIAQVASHIYGGTTINRIDEVLAPFVTASYNKHRKTAEEWNIPDAEGYANSRTIKECYDAFQSLEYEVNTLHTANGQTPFVTFGFGLGTSWESRLIQESILRNRIAGLGKNRKTAVFPKLVFAIRDGLNHKKGDPNYDIKQLALECASKRMYPDILNYDQVVKVTGSFKTPMGCRSFLGVWENENGEQIHDGRNNLGVISLNLPRIALEAKGDEATFWKLLDERLVLARKALMTRIARLEGVKARVAPILYMEGACGVRLNADDDVSEIFKNGRASISLGYIGIHETINALFGGEHVYDNEQLRAKGIAIVERLRQAVDQWKEETGYGFSLYSTPSENLCDRFCRLDTAEFGVVPGVTDKGYYTNSFHLDVEKKVNPYDKIDFEAPYPPLANGGFICYGEYPNIQHNLKALEDVWDYSYQHVPYYGTNTPIDECYECGFTGEFECTSKGFTCPKCGNHDASRVSVTRRVCGYLGSPDARPFNAGKQEEVKRRVKHLGNGQIG
B5: RecC (protein, UniProt P07648 1-1122)
chain: MLRVYHSNRLDVLEALMEFIVERERLDDPFEPEMILVQSTGMAQWLQMTLSQKFGIAANIDFPLPASFIWDMFVRVLPEIPKESAFNKQSMSWKLMTLLPQLLEREDFTLLRHYLTDDSDKRKLFQLSSKAADLFDQYLVYRPDWLAQWETGHLVEGLGEAQAWQAPLWKALVEYTHQLGQPRWHRANLYQRFIETLESATTCPPGLPSRVFICGISALPPVYLQALQALGKHIEIHLLFTNPCRYYWGDIKDPAYLAKLLTRQRRHSFEDRELPLFRDSENAGQLFNSDGEQDVGNPLLASWGKLGRDYIYLLSDLESSQELDAFVDVTPDNLLHNIQSDILELENRAVAGVNIEEFSRSDNKRPLDPLDSSITFHVCHSPQREVEVLHDRLLAMLEEDPTLTPRDIIVMVADIDSYSPFIQAVFGSAPADRYLPYAISDRRARQSHPVLEAFISLLSLPDSRFVSEDVLALLDVPVLAARFDITEEGLRYLRQWVNESGIRWGIDDDNVRELELPATGQHTWRFGLTRMLLGYAMESAQGEWQSVLPYDESSGLIAELVGHLASLLMQLNIWRRGLAQERPLEEWLPVCRDMLNAFFLPDAETEAAMTLIEQQWQAIIAEGLGAQYGDAVPLSLLRDELAQRLDQERISQRFLAGPVNICTLMPMRSIPFKVVCLLGMNDGVYPRQLAPLGFDLMSQKPKRGDRSRRDDDRYLFLEALISAQQKLYISYIGRSIQDNSERFPSVLVQELIDYIGQSHYLPGDEALNCDESEARVKAHLTCLHTRMPFDPQNYQPGERQSYAREWLPAASQAGKAHSEFVQPLPFTLPETVPLETLQRFWAHPVRAFFQMRLQVNFRTEDSEIPDTEPFILEGLSRYQINQQLLNALVEQDDAERLFRRFRAAGDLPYGAFGEIFWETQCQEMQQLADRVIACRQPGQSMEIDLACNGVQITGWLPQVQPDGLLRWRPSLLSVAQGMQLWLEHLVYCASGGNGESRLFLRKDGEWRFPPLAAEQALHYLSQLIEGYREGMSAPLLVLPESGGAWLKTCYDAQNDAMLDDDSTLQKARTKFLQAYEGNMMVRGEGDDIWYQRLWRQLTPETMEAIVEQSQRFLLPLFRFNQS
B6: YjbM (protein, UniProt P32694 1-235)
chain: MWVNKYIDDCTDEDLNDRDFIASVVDRAIFHFAINSICNPGDNKDAMPIEQCTFDVETKNDLPSTVQLFYEESKDNEPLANIHFQAIGSGFLTFVNACQEHDDNSLKLFASLLISLSYSSAYADLSETVYINENNESYLKAQFEKLSQRDMKKYLGEMKRLADGGEMNFDGYLDKMSHLVNEGTLDPDILSKMRDAAPQLISFAKSFDPTSKEEIKILTDTSKLIYDLFGVKSEK
B7: GldA (protein, UniProt P0A9S5 1-367)
chain: MDRIIQSPGKYIQGADVINRLGEYLKPLAERWLVVGDKFVLGFAQSTVEKSFKDAGLVVEIAPFGGECSQNEIDRLRGIAETAQCGAILGIGGGKTLDTAKALAHFMGVPVAIAPTIASTDAPCSALSVIYTDEGEFDRYLLLPNNPNMVIVDTKIVAGAPARLLAAGIGDALATWFEARACSRSGATTMAGGKCTQAALALAELCYNTLLEEGEKAMLAAEQHVVTPALERVIEANTYLSGVGFESGGLAAAHAVHNGLTAIPDAHHYYHGEKVAFGTLTQLVLENAPVEEIETVAALSHAVGLPITLAQLDIKEDVPAKMRIVAEAACAEGETIHNMPGGATPDQVYAALLVADQYGQRFLQEWE
B8: phosphoenolpyruvate carboxylase (enzyme, UniProt P00864 1-883)
chain: MNEQYSALRSNVSMLGKVLGETIKDALGEHILERVETIRKLSKSSRAGNDANRQELLTTLQNLSNDELLPVARAFSQFLNLANTAEQYHSISPKGEAASNPEVIARTLRKLKNQPELSEDTIKKAVESLSLELVLTAHPTEITRRTLIHKMVEVNACLKQLDNKDIADYEHNQLMRRLRQLIAQSWHTDEIRKLRPSPVDEAKWGFAVVENSLWQGVPNYLRELNEQLEENLGYKLPVEFVPVRFTSWMGGDRDGNPNVTADITRHVLLLSRWKATDLFLKDIQVLVSELSMVEATPELLALVGEEGAAEPYRYLMKNLRSRLMATQAWLEARLKGEELPKPEGLLTQNEELWEPLYACYQSLQACGMGIIANGDLLDTLRRVKCFGVPLVRIDIRQESTRHTEALGELTRYLGIGDYESWSEADKQAFLIRELNSKRPLLPRNWQPSAETREVLDTCQVIAEAPQGSIAAYVISMAKTPSDVLAVHLLLKEAGIGFAMPVAPLFETLDDLNNANDVMTQLLNIDWYRGLIQGKQMVMIGYSDSAKDAGVMAASWAQYQAQDALIKTCEKAGIELTLFHGRGGSIGRGGAPAHAALLSQPPGSLKGGLRVTEQGEMIRFKYGLPEITVSSLSLYTGAILEANLLPPPEPKESWRRIMDELSVISCDVYRGYVRENKDFVPYFRSATPEQELGKLPLGSRPAKRRPTGGVESLRAIPWIFAWTQNRLMLPAWLGAGTALQKVVEDGKQSELEAMCRDWPFFSTRLGMLEMVFAKADLWLAEYYDQRLVDKALWPLGKELRNLQEEDIKVVLAIANDSHLMADLPWIAESIQLRNIYTDPLNVLQAELLHRSRQAEKEGQEPDPRVEQALMVTIAGIAAGMRNTG

Each binder was assayed against T1, DyLight 549-labeled Lactoferricin B (assay: fluorescence polarisation; data not shown; DyLight 549-labeled LfcinB with the tested proteins, compared with BSA; both purified).

binding	Binder
binds	B1
binds	B2
binds	B3
binds	B4
binds	B5
binds	B6
binds	B7
binds	B8
